Assay results: US20150051372 (published 2015)

Assay: general procedure: Fmoc solid-phase peptide synthesis
Conditions: for step yield / final purity (method not given): purification step; for step yield: overall yield of purification; for crude purity (method not given): whole synthesis

liraglutide
step yield (run 1): 64.4% | step yield (run 2): 61.3% | step yield (run 3): 61.1% | step yield (run 4): 61.3% | step yield (run 5): 62.9% | final purity (method not given) (run 1): 98.6% | final purity (method not given) (run 2): 98.4% | final purity (method not given) (run 3): 98.7% | final purity (method not given) (run 4): 98.4% | final purity (method not given) (run 5): 98.2% | crude purity (method not given) (run 1): 50% | crude purity (method not given) (run 2): 60% | crude purity (method not given) (run 3): 58% | crude purity (method not given) (run 4): 53% | crude purity (method not given) (run 5): 56%
